# Some entries share one result that the patent states for a list of compounds.
# By UniProt entry, the sequences of proteins in these tests, tags left out. Where a name states a change or a piece, a line headed by the entry shows the natural chain unless it says otherwise.
# UniProt Q5S007: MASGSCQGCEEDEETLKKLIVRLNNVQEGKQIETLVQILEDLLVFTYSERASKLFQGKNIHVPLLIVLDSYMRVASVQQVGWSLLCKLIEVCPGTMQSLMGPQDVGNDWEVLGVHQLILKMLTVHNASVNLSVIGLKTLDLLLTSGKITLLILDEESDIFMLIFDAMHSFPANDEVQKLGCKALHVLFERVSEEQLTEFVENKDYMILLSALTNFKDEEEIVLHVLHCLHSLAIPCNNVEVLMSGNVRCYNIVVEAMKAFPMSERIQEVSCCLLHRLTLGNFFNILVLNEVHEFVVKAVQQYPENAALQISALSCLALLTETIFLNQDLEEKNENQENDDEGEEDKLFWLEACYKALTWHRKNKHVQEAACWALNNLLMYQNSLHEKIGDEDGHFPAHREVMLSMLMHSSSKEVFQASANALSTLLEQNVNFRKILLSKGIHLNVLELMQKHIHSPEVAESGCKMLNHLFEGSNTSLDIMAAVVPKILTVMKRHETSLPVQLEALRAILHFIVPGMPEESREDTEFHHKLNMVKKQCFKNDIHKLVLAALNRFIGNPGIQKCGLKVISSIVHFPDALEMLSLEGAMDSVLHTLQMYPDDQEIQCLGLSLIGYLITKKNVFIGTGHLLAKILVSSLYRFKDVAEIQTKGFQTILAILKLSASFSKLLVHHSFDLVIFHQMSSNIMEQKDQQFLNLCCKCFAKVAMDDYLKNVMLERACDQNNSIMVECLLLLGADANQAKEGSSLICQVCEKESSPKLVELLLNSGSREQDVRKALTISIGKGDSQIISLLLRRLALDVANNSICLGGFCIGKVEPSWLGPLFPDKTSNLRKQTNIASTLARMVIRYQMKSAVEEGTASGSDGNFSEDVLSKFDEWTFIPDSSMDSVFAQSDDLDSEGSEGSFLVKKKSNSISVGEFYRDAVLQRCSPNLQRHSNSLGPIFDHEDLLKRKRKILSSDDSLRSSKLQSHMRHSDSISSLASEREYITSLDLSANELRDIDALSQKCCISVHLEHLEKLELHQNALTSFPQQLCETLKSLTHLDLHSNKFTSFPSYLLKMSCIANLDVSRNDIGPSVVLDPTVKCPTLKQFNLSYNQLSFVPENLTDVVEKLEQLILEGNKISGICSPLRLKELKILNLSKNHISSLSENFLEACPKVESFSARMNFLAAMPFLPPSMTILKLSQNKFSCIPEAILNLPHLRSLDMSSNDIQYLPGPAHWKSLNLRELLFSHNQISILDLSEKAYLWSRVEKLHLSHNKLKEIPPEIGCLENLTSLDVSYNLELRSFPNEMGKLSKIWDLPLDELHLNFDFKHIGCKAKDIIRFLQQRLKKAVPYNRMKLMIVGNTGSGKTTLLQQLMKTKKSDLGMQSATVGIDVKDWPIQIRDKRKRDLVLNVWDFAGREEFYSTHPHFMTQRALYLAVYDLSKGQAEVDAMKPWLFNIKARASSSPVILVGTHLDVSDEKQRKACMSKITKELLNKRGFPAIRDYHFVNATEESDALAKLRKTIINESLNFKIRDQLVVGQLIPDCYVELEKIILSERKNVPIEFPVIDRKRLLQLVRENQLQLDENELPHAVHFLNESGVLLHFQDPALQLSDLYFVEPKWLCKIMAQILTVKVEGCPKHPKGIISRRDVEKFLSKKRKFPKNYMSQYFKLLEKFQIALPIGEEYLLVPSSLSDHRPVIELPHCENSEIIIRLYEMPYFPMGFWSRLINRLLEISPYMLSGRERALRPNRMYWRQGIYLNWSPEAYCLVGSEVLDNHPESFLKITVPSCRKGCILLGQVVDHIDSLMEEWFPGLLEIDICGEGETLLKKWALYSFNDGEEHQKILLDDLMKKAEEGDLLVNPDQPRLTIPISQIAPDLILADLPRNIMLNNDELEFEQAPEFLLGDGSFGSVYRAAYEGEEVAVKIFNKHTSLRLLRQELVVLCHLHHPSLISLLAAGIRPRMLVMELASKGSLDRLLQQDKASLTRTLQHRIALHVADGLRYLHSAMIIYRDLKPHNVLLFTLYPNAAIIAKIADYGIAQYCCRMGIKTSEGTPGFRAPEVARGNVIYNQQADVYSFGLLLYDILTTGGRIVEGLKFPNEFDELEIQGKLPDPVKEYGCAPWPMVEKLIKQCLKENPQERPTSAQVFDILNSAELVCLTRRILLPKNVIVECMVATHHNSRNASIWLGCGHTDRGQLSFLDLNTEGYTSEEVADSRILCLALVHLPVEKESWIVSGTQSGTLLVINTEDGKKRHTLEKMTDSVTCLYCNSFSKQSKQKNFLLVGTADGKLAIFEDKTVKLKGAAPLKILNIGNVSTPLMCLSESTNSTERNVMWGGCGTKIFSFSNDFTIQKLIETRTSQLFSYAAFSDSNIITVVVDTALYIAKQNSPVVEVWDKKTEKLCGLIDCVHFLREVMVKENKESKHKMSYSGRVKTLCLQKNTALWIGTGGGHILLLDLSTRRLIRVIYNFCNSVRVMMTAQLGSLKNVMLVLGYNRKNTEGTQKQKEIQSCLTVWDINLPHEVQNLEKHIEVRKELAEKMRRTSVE
# Biological target: T1, LRRK2 kinase in SH-SY5Y cells over-expressing recombinant full length LRRK2 (Homo sapiens, UniProt Q5S007)
# T1 construct: A BacMam virus expressing full length recombinant LRRK2 was purchased from Invitrogen; host or cells: SH-SY5Y human neuroblastoma cells transduced with BacMam LRRK2 virus
# Assay: Recombinant cellular LRRK2 AlphaScreen assay (LRRK2 Ser935 phosphorylation)
# Format: cell-based
# Conditions: 60 min
# Source text: b. Recombinant Cellular LRRK2 AlphaScreen Assay
# To determine the activity of compounds against LRRK2 kinase in cells, the observed LRRK2 kinase-dependent modulation of LRRK2 Ser 935 phosphorylation (Dzamko et al., 2010, Biochem. J. 430: 405-413) was utilized to develop a quantitative 384 well plate-based immunoassay of LRRK2 Ser935 phosphorylation in the human neuroblastoma cell line SH-SY5Y, engineered to over-express recombinant full length LRRK2 protein.
# A BacMam virus expressing full length recombinant LRRK2 was purchased from Invitrogen and amplified by inoculation of SF-9 cells at MOI 0.3 for 4-5 days in Sf-900 III SFM medium supplemented with 3% fetal bovine serum. Infected cell cultures were then centrifuged at 2000 g for 20 minutes, viral supernatant titer determined by anti-gp64 plaque assay and stored at 4° C.
# Affinity-purified anti-phospho LRRK2 Ser935 sheep polyclonal antibody (Dzamko et al., 2010, Biochem. J. 430: 405-413) was biotinylated by standard methods (PerkinElmer). Anti-LRRK2 rabbit polyclonal antibody was purchased from Novus Biologicals. AlphaScreen Protein A IgG Kit (including acceptor and donor beads) was purchased from Perkin Elmer.
# SH-SY5Y cells were grown in DMEM/F12 medium with 10% dialysed fetal bovine serum and harvested by treatment with 0.5% trypsin-EDTA for 5 minutes at 37° C. followed by centrifugation at 1000 rpm for 4 minutes. The cell pellet was resuspended in Opti-MEM reduced serum media (Invitrogen) at 200,000 cells/ml and mixed with the BacMam LRRK2 virus at M01=50. 50 μl cell solutions were then dispensed to each well of a 384-well plate and incubated at 37° C., 5% CO2 for 24 hours.
# Compounds were prepared at 10× final assay concentration as 11 point 1 in 4 serial I dilutions in Opti-MEM reduced serum medium (Invitrogen 31985070) containing 1% DMSO. On the day of assay, 5.5 μl of the compound solutions were transferred from the compound plate to the cell assay plate to achieve a top final assay concentration of 10 uM. DMSO (0.1% final assay concentration) was added to column 6 and 2-(benzyloxy)-5-methyl-4-(1-methyl-1H-pyrazol-4-yl)-N-(pyridin-3-yl)benzamide (2 μM final assay concentration) was added to column 18 to serve as 0% and 100% inhibition controls, respectively.
# Cells were incubated at 37° C., 5% CO2 for 60 minutes. The medium was then removed and cells lysed by addition of 20 μl of cell lysis buffer (Cell Signaling Technology) and incubation at 4° C. for 20 minutes. 10 μl of antibody/acceptor bead mix [(1/1000 biotinylated-pS935 LRRK2 antibody, 1/1000 total-LRRK2 antibody, 1/100 Acceptor beads in AlphaScreen detection buffer (25 mM Hepes (pH 7.4), 0.5% Triton X-100, 1 mg/ml Dextran 500 and 0.1% BSA)] was then added to each well and plates incubated for 2 hours at ambient temperature in the dark. 10 μl of donor beads solution (1/33.3 donor beads in AlphaScreen detection buffer) was then added to each well. Following incubation for a further 2 hours at ambient temperature in the dark, plates were read on an EnVision™ plate reader at emission 520-620 nm with excitation 680 nm. Dose response curve data was based on a sigmoidal dose-response model.
row,SMILES,pIC50
1,"Cc1c2c(nn1C1CCCOC1)OCCCNc1nc(ncc1Cl)N2 (single isomer, unassigned) [E11, 14-Chloro-4-methyl-5-(oxan-3-yl)-8-oxa-2,5,6,12,16,17-hexaaza tricyclo-[11.3.1.0^3,7]heptadeca-1(16),3,6,13(17),14-pentaene]",≥ 7.0
2,"Cc1c2c(nn1C1CCOCC1)OCC(F)CNc1nc(ncc1Cl)N2 (single isomer, unassigned) [E18, 14-Chloro-10-fluoro-4-methyl-5-(oxan-4-yl)-8-oxa-2,5,6,12,16,17-hexaazatricyclo [11.3.1.0^3,7]heptadeca-1(16),3,6,13(17),14-pentaene]",≥ 7.0
3,"Cc1c2c(nn1C1CCOCC1F)OCCC(C)Nc1nc(ncc1Cl)N2 (single isomer, unassigned) [E25, 14-chloro-5-(3-fluorooxan-4-yl)-4,11-dimethyl-8-oxa-2,5,6,12,16,17-hexaazatricyclo [11.3.1.0^3,7]heptadeca-1(17),3,6,13,15-pentaene]",≥ 7.0
4,"Cc1c2c(nn1C1CCOCC1F)OCCC(C)Nc1nc(ncc1Cl)N2 (single isomer, unassigned) [E27, 14-chloro-5-(3-fluorooxan-4-yl)-4,11-dimethyl-8-oxa-2,5,6,12,16,17-hexaazatricyclo [11.3.1.0^3,7]heptadeca-1(17),3,6,13,15-pentaene]",≥ 7.0
5,"Cc1c2c(nn1C1CCOCC1F)OCCC(C)Nc1nc(ncc1Cl)N2 (single isomer, unassigned) [E28, 14-chloro-5-(3-fluorooxan-4-yl)-4,11-dimethyl-8-oxa-2,5,6,12,16,17-hexaazatricyclo [11.3.1.0^3,7]heptadeca-1(17),3,6,13,15-pentaene]",≥ 7.0
6,"COCCN1CCC(n2nc3c(c2C)Nc2ncc(Cl)c(n2)NCCCO3)C(F)C1 (single isomer, unassigned) [E60, trans-14-chloro-5-[3-fluoro-1-(2-methoxyethyl)piperidin-4-yl]-4-methyl-8-oxa-2,5,6,12,16,17-hexaazatricyclo[11.3.1.0^3,7]heptadeca 1(16),3,6,13(17),14-pentaene]",≥ 7.0
7,"Cc1c2c(nn1C1CCN(C3COC3)CC1F)OCCCNc1nc(ncc1Cl)N2 (single isomer, unassigned) [E62, trans-14-chloro-5-[3-fluoro-1-(oxetan-3-yl)piperidin-4-yl]-4-methyl-8-oxa-2,5,6,12,16,17-hexaazatricyclo[11.3.1.0^3,7]heptadeca-1(16),3,6,13(17),14-pentaene]",≥ 7.0
8,"Cc1c2c(nn1C1CCCN(C3COC3)C1)OCC[C@@H](C)Nc1nc(ncc1Cl)N2 (single isomer, unassigned) [E68]",≥ 7.0
9,"Cc1c2c(nn1C1CCOC(C)C1)OCCC(C)Nc1nc(ncc1Cl)N2 (single isomer, unassigned) [E84, 14-chloro-4,11-dimethyl-5-(2-methyloxan-4-yl)-8-oxa-2,5,6,12, 16,17-hexaazatricyclo[11.3.1.0^3,7]heptadeca-1(16),3,6,13(17),14-pentaene]",≥ 7.0
10,"Cc1c2c(nn1C1CCC(N3C[C@@H]4C[C@H]3CO4)CC1)OCCC(C)Nc1nc(ncc1Cl)N2 (single isomer, unassigned) [E105]",≥ 7.0
11,"Cc1c2c(nn1C1CCOC1)OCCCNc1nc(ncc1Cl)N2 (single isomer, unassigned) [E124, 14-chloro-4-methyl-5-(oxolan-3-yl)-8-oxa-2,5,6,12,16,17-hexaazatricyclo[11.3.1.0^3,7]heptadeca-1(16),3,6,13(17), 14-pentaene]",≥ 7.0
12,"Clc1cnc2nc1NCCCOc1nn(C3CCOC3)c(Cl)c1N2 (single isomer, unassigned) [E146, 4,14-Dichloro-5-(oxolan-3-yl)-8-oxa-2,5,6,12, 16,17-hexaaza tricyclo[11.3.1.0^3,7]heptadeca-1(16),3,6,13(17), 14-pentaene]",≥ 7.0
13,"COC1CCCC(n2nc3c(c2C)Nc2ncc(Cl)c(n2)NCCCO3)C1 (single isomer, unassigned) [E179, 14-Chloro-5-(3-methoxycyclohexyl)-4-methyl-8-oxa-2,5,6,12,16,17-hexaazatricyclo[11.3.1.0^3,7]heptadeca-1(16),3,6,13(17),14-pentaene]",≥ 7.0
14,"COC1CCCC(n2nc3c(c2C)Nc2ncc(Cl)c(n2)NCCCO3)C1 (single isomer, unassigned) [E181, 14-Chloro-5-(3-methoxycyclohexyl)-4-methyl-8-oxa-2,5,6,12,16,17-hexaazatricyclo[11.3.1.0^3,7]heptadeca-1(16),3,6,13(17),14-pentaene]",≥ 7.0
15,"Cc1c2c(nn1C(C)C1CCOCC1)OCCC(C)Nc1nc(ncc1Cl)N2 (single isomer, unassigned) [E184, 14-Chloro-4,11-dimethyl-5-[1-(oxan-4-yl)ethyl]-8-oxa-2,5,6,12,16,17-hexaazatricyclo[11.3.1.0^3,7]heptadeca-1(16),3,6,13(17),14-pentaene]",≥ 7.0
16,"Cc1c2c(nn1C1CC(C)OC(C)C1)OCCC(C)Nc1nc(ncc1Cl)N2 (single isomer, unassigned) [E195, 14-Chloro-5-(2,6-dimethyloxan-4-yl)-4,11-dimethyl-8-oxa-2,5,6,12,16,17-hexaazatricyclo[11.3.1.0^3,7] heptadeca-1(16),3,6,13(17),14-pentaene]",≥ 7.0
17,"Cc1c2c(nn1C1CCOC(C)C1)OCCCNc1nc(ncc1Cl)N2 (single isomer, unassigned) [E203, 14-Chloro-4-methyl-5-(2-methyloxan-4-yl)-8-oxa-2,5,6,12,16,17-hexaazatricyclo[11.3.1.0^3,7]heptadeca-1(16),3,6,13(17),14-pentaene]",≥ 7.0
18,"COC1CNc2nc(ncc2Cl)Nc2c(nn(C3CCCOC3)c2C)OC1 (single isomer, unassigned) [E230, 14-Chloro-10-methoxy-4-methyl-5-(oxan-3-yl)-8-oxa-2,5,6,12,16,17-hexaazatricyclo[11.3.1.0^3,7]heptadeca-1(17),3,6,13,15-pentaene]",≥ 7.0
19,"Cc1c2c(nn1C1CCOCC1F)OCCCNc1nc(ncc1Cl)N2 (single isomer, unassigned) [E234, 14-Chloro-5-(3-fluorooxan-4-yl)-4-methyl-8-oxa-2,5,6,12,16,17-hexaazatricyclo[11.3.1.0^3,7]heptadeca-1(16),3,6,13 (17),14-pentaene]",≥ 7.0
20,"Cc1c2c(nn1C1CCOCC1F)OCCCNc1nc(ncc1Cl)N2 (single isomer, unassigned) [E235, 14-Chloro-5-(3-fluorooxan-4-yl)-4-methyl-8-oxa-2,5,6,12,16,17-hexaazatricyclo[11.3.1.0^3,7]heptadeca-1(16),3,6,13 (17),14-pentaene]",≥ 7.0
21,"Cc1c2c(nn1C1CCOCC1F)OCCCNc1nc(ncc1Cl)N2 (single isomer, unassigned) [E236, 14-Chloro-5-(3-fluorooxan-4-yl)-4-methyl-8-oxa-2,5,6,12,16,17-hexaazatricyclo[11.3.1.0^3,7]heptadeca-1(16),3,6,13 (17),14-pentaene]",≥ 7.0
22,"Cc1c2c(nn1C1CC3CCC(C1)O3)OCCCNc1nc(ncc1Cl)N2 (single isomer, unassigned) [E244, 14-Chloro-4-methyl-5-{8-oxabicyclo[3.2.1]octan-3-yl}-8-oxa-2,5,6,12,16,17-hexaazatricyclo[11.3.1.0^3,7] heptadeca-1(16),3,6,13(17),14-pentaene]",≥ 7.0
23,"Cc1c2c(nn1C1CC3CCC(C1)O3)OCCC(C)Nc1nc(ncc1Cl)N2 (single isomer, unassigned) [E251, 14-Chloro-4,11-dimethyl-5-{8-oxabicyclo[3.2.1]octan-3-yl}-8-oxa-2,5,6,12,16,17-hexaazatricyclo[11.3.1.0^3,7] heptadeca-1(16),3,6,13(17),14-pentaene]",≥ 7.0
